# Reference: PubChem BioAssay AID1347076 (National Center for Advancing Translational Sciences (NCATS), 2019)
# “And” between values parts separate entries of the source, which are not always exact repeats. Equal values may be shown once. About 13,000 (3.2%) of roughly 400,000 compounds were called active. The inconclusive results got no clear call from the source; some entries with a clear call stand among them for comparison. The call rests on the fitted dose curve; in most records, active means well fitted cell-killing curve with a large enough effect; inconclusive means small, poorly fitted or top-dose-only effect, or effect the other way; inactive means flat fitted curve, though single readings scatter. Potencies beside an inconclusive call are fits to weak or partial responses and may not hold up.
# Assay: qHTS assay for MDR1-selective chemotherapeutics: Primary screen using the drug-selected MDR subline cells KB-V1; further: nearly all actives have a fitted effect of over 60% in size
# Conditions: KB-V1 MDR cells viability, CellTiter-Glo, 72 h; activity change, negative = cytotoxicity: at 46.1 µM (top of the series)
# Procedure, shortened: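 Compound-treated KB-V1 multidrug-resistant cells, 72 h, 37 degrees C; viability by CellTiter-Glo. Fitted qHTS curves give the values.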
# On the % scale 0 is the no-effect control and ±100 the full control effect; potency means the concentration at half of the fitted maximal effect.
SMILES,Potency,"activity change, negative = cytotoxicity"
O=C(CN1C(=O)COc2ccc(S(=O)(=O)N3CCCCCC3)cc21)N1CCN(c2ccccc2)CC1,"inconclusive: 4.11 µM [cytotoxic, partial curve, poor fit]",
CCCCCOc1ccc2oc(=O)c3c(c2c1)CCCN3C(=O)CN1CCCC(C(=O)OCC)C1 (stereo unspecified),"inconclusive: 16.4 µM [cytotoxic, single point]",
CCNC(=O)C1CCCN(Cc2ccc3ccccc3c2Br)CC1 (stereo unspecified),inactive,
O=C(c1csc2ccccc12)N1CCN(c2ccc(Cl)c(Cl)c2)CC1,inactive,
CCOc1ccc(NC(=O)NNC(=O)c2cc3ccccc3cc2O)cc1,"inconclusive: 29.1 µM [rising, single point]",
CCN1CCCC1CNC(=O)C1CCN(C(=O)c2cc3sccc3n2Cc2ccc(F)cc2)CC1 (stereo unspecified),"inconclusive: 29.1 µM [rising, single point]",
COc1ccc(C(=O)O/N=C(\N)c2ccc(OC)c(OC)c2)c(OC)c1,"inconclusive: 25.9 µM [cytotoxic, partial curve, poor fit]",
O=C(Nc1ccccc1)c1ccc(S(=O)(=O)NCc2ccco2)cc1,inactive,
COc1cccc(-c2nn(-c3ccccc3)cc2/C=C\C(=O)c2cccs2)c1,"inconclusive: 18.4 µM [cytotoxic, single point]",
CC(=O)Nc1ccc(S(=O)(=O)Nc2cccc(C(=O)NC(C)(C)C)c2)cc1,"inconclusive: 29.1 µM [rising, single point]",
CC(C)(C)c1cc(NCCCn2ccnc2)n2ncc(-c3ccccc3)c2n1,"inconclusive: 23.1 µM [rising, single point]",
COc1ccc(CNC(=O)C2CCCN(S(=O)(=O)N3CCC(C)CC3)C2)c(OC)c1 (stereo unspecified),"inconclusive: 29.1 µM [cytotoxic, single point]",
O=C(c1ccc(S(=O)(=O)N2CCCCC2)cc1)N1CCCC(C(F)(F)F)C1 (stereo unspecified),"inconclusive: 14.6 µM [cytotoxic, partial curve]",
c1csc(CNc2nc(-c3cccs3)nc3ccccc23)c1,inactive,
NC(=O)Cc1nc(-c2ccc([N+](=O)[O-])cc2)cs1,inactive,
CCS(=O)(=O)c1ccc(O)c(NC(=O)Nc2cccc3ccccc23)c1,"inconclusive: 29.1 µM [rising, partial curve, poor fit]",
CCn1cc(S(=O)(=O)CC(=O)N2CCc3ccccc32)c2ccccc21,"inconclusive: 32.6 µM [cytotoxic, single point]",
COc1cc(CNc2nc3ccccc3[nH]2)cc(OC)c1OC,"inconclusive: 23.1 µM [cytotoxic, partial curve, poor fit]",
CCOc1ccccc1NC(=O)C1CCCN(S(=O)(=O)c2ccc3c(c2)CCCN3C(C)=O)C1 (stereo unspecified),"inconclusive: 20.6 µM [cytotoxic, single point] and inconclusive: 8.2 µM [cytotoxic, partial curve]",
CCOC(=O)C1=C(c2ccc(OC)cc2)C(=O)c2ccccc2C1=O,"inconclusive: 16.4 µM [cytotoxic, single point]",
c1coc(-c2nn3c(-c4ccco4)nnc3s2)c1,"inconclusive: 16.4 µM [cytotoxic, single point]",
Cc1cccc(C)c1OCC(=O)Nc1cccc(S(=O)(=O)N2CCCC2)c1,"inconclusive: 10.3 µM [cytotoxic, partial curve]",
Cc1cc(NC(=O)COC(=O)c2oc3c(ccc4ccccc43)c2C)no1,"inconclusive: 6.51 µM [cytotoxic, partial curve]",
CCCCNC(=O)CNC(=S)N(Cc1ccccc1)Cc1cccs1,"inconclusive: 10.3 µM [cytotoxic, partial curve]",

SMILES,Potency,"activity change, negative = cytotoxicity"
CN(C)S(=O)(=O)c1ccc(C(=O)NCc2ccco2)cc1,"inconclusive: 18.4 µM [rising, single point]",
CN(C)CCCn1cnc2c(c1=N)C(c1ccccc1)c1ccc3ccccc3c1O2 (stereo unspecified),inactive,
CC1CCN(S(=O)(=O)c2ccc3c(c2)c(=O)c(C(=O)NCc2ccco2)cn3C)CC1,active: 9.2 µM,
COc1cc(-c2nnc(SCC(=O)N3CCCc4ccccc43)o2)cc(OC)c1OC,active: 2.59 µM,
CCN(CC)S(=O)(=O)c1ccc2c(c1)N(CC(=O)N1CCCC1)C(=O)CO2,inactive,
O=C(NCc1ccccc1Br)c1ccc(-n2cnc3cccnc32)cc1,inactive,
Cc1ccc(C(=O)Nc2ccc([N+](=O)[O-])cn2)o1,"inconclusive: 14.6 µM [cytotoxic, partial curve]",
Cc1ccc(NC(=O)COc2nc(C)cs2)cc1,inactive,
CNC(=O)N(O)C1N(/N=C/c2cccnc2)C(=S)SC1(C)C (stereo unspecified),,inconclusive: 0%
O=C(CN1CCN(CC(=O)Nc2ccccc2Cl)CC1)NCC1(N2CCCCC2)CCCCC1,,inconclusive: -0.0966%
C/C(=N\Nc1ncc(Cl)cc1Cl)c1ccccn1,"inconclusive: 1.16 µM [cytotoxic, full curve, poor fit]",
CCC(C)(NC(=O)c1ccc2c(c1)OCO2)C(=O)NC1CCCCC1 (stereo unspecified),inactive,
CCOC(=O)CSc1nc(N2CCOCC2)c2c(c1C#N)CC(C)(C)N(C)C2,"inconclusive: 9.2 µM [cytotoxic, partial curve]",
Cc1ccc(C(=O)Nc2cc3c(cc2Cl)OCCCO3)cc1,inactive,
Cc1nnsc1C(=O)Oc1ccccc1Cl,inactive,
COc1ccc(NC(=O)CCNS(=O)(=O)c2cc(Br)cnc2N)c(OC)c1,inactive,
CCOC(=O)N1CCN(C(=O)c2cccc(S(=O)(=O)Nc3ccccc3Cl)c2)CC1,active: 18.4 µM,
COc1ccccc1NC1=C(NC(C)=O)C(=O)c2ccccc2C1=O,"inconclusive: 29.1 µM [cytotoxic, single point]",
CCN(C(=O)CSc1n[nH]c(-c2cccs2)n1)C1CCS(=O)(=O)C1 (stereo unspecified),"inconclusive: 6.51 µM [rising, full curve]",
C=CCn1c(=O)c2c3c(sc2n2c(Nc4ccccc4)nnc12)CCCC3,"inconclusive: 35.5 µM [cytotoxic, single point]",
C=CCn1c(SCC#N)nnc1-c1ccc2ncccc2c1,inactive,
O=C1CCCc2c1cc(C(=O)NCc1ccco1)c(=O)n2-c1ccc(Cl)cc1,active: 16.4 µM,
COc1ccc(C(=O)N=c2sc3cc(Cl)ccc3n2C)cc1,"inconclusive: 29.1 µM [rising, single point]",
CCC(C)c1ccc(O)c(NC(=O)c2cncc(Br)c2)c1 (stereo unspecified),"inconclusive: 18.4 µM [cytotoxic, partial curve]",

SMILES,Potency,"activity change, negative = cytotoxicity"
COC(=O)c1ccc(NCN2C(=O)C3C4CCC(C4)C3C2=O)cc1 (stereo unspecified),"inconclusive: 25.9 µM [rising, partial curve]",
CCn1c(C(=O)Nc2cc(C)cc(C)c2)cc2sc(Cl)cc21,"inconclusive: 29.1 µM [rising, single point]",
Cc1ccc(/C=N/NC(=O)c2ccc3ccccc3c2)s1,"inconclusive: 7.31 µM [cytotoxic, partial curve]",
Cc1ccc(NC(=O)CCNS(=O)(=O)c2ccc3[nH]c(=O)oc3c2)c(C)c1,"inconclusive: 1.84 µM [rising, full curve, poor fit]",
Cc1ccc(-c2cn3c4c(=O)n(C)c(=O)n(C)c4nc3n2-c2cccc(Cl)c2)cc1,"inconclusive: 32.6 µM [cytotoxic, single point]",
C=CCOc1ccc(CN(C)Cc2nc3cc(C(F)(F)F)ccc3c(=O)[nH]2)cc1,inactive,
COc1cccc(/C=C/C(=O)Nc2ccc(OC)nc2)c1,active: 18.4 µM,
Cc1ccc(S(=O)(=O)N2CCN(C(=O)COC(=O)/C=C/c3ccc(OC(F)F)cc3)CC2)cc1,inactive,
CCOC(=O)C1=CCC(c2ccc(CC)cc2)N(S(=O)(=O)c2ccc(C)cc2)C1 (stereo unspecified),inactive,
O=C(N/N=C/c1cc([N+](=O)[O-])cc([N+](=O)[O-])c1O)/C(=C\c1cccs1)NC(=O)c1ccccc1,inactive,
CN(Cc1ccccc1)c1nc2c(c(=O)[nH]c(=O)n2C)n1CCCSc1ncccn1,active: 2.59 µM,
Cc1[nH]n2c(=O)cc(C(C)C)nc2c1-c1ccccc1,"inconclusive: 18.4 µM [cytotoxic, single point]",
Nc1nc(SC23CC4CC(CC(C4)C2)C3)ns1,"inconclusive: 8.2 µM [rising, partial curve]",
Cc1cccc(NC(=O)CSc2nnc(-c3ccc(S(=O)(=O)N4CCCC4)cc3)o2)c1,"inconclusive: 16.4 µM [cytotoxic, partial curve]",
O=C(CSc1ncnc2scc(-c3ccc(F)cc3)c12)c1ccc2c(c1)OCCO2,"inconclusive: 14.6 µM [cytotoxic, partial curve]",
CCCCNC(=O)C1(C)CCN1C(=O)c1cc(F)ccc1C (stereo unspecified),inactive,
Cc1ccc(NC2=CC(=O)C(=O)c3ccccc32)cc1,active: 16.4 µM,
CCOCCCNC(=O)c1cc2sc(Cl)cc2n1CC,"inconclusive: 25.9 µM [cytotoxic, partial curve, poor fit]",
O=C(N/N=C/c1ccccc1)c1ccco1,"inconclusive: 29.1 µM [rising, single point]",
Fc1ccccc1Cn1nnc2c(-n3ccnc3)ncnc21,inactive,
NC(=O)[C@H]1CC2(CC(c3cccc(NC(=O)COc4ccc(Cl)cc4)c3)=NO2)CN1C(=O)c1ccccc1C(=O)c1ccccc1 (stereo partly specified),inactive,
COc1ccc(N=Cc2cc(Cc3ccccc3Cl)cc([N+](=O)[O-])c2O)cc1OC,"inconclusive: 20.6 µM [rising, partial curve, poor fit]",
CCOc1ccccc1NC(=O)Nn1cnnc1,inactive,

# Not a retest: 3 of the compounds above.
SMILES,Potency,"activity change, negative = cytotoxicity"
Cc1ccc(/C=N/NC(=O)c2ccc3ccccc3c2)s1,"inconclusive: 7.31 µM [cytotoxic, partial curve]",
Cc1ccc(NC(=O)CCNS(=O)(=O)c2ccc3[nH]c(=O)oc3c2)c(C)c1,"inconclusive: 1.84 µM [rising, full curve, poor fit]",
Cc1ccc(-c2cn3c4c(=O)n(C)c(=O)n(C)c4nc3n2-c2cccc(Cl)c2)cc1,"inconclusive: 32.6 µM [cytotoxic, single point]",
